Source: the supplement of paper PMC3334620
Whole data set: some 33,000 sequences, median “E-score (-0.5 to 0.5)” near -8e-05, cut for the highest 2% near 0.23. The list shows a part of the results.

What follows are sequences tested against T1, Nrg2 (UniProt P38082) (assay: PBM E-score (8-mer binding enrichment) (E-score (-0.5 to 0.5)); higher = stronger / more preferred TF binding). Conditions: protein concentration: 100 nM; construct: GST-full length.
T1 sequence: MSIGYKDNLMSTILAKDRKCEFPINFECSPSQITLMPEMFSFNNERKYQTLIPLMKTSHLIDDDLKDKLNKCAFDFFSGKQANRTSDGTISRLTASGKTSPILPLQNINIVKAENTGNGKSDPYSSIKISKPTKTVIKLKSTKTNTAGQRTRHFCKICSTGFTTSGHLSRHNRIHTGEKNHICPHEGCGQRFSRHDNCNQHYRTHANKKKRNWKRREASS
Method: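 Universal 'all 10-mer' protein binding microarrays (Agilent AMADID 015681) probed with GST-tagged S. cerevisiae TFs (full-length or DBD) made by in vitro transcription/translation (PURExpress), about 100-200 nM. Bound TF was detected with fluorescent anti-GST. Each ungapped 8-mer (which stands for itself and its reverse complement) is scored by the PBM enrichment score (E-score), a modified Wilcoxon-Mann-Whitney statistic from -0.5 to +0.5, computed with the Universal PBM Analysis Suite. Scale: above 0.35 generally sequence-specific binding.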

Q: For ATACACAT, which “PBM E-score” value is on record?
A: 0.109

Q: GTACAGCA was tested. Which “PBM E-score” value did it give?
A: -0.139

Q: ACCTTAAA was tested. Which “PBM E-score” value did it give?
A: 0.064

Q: How did the “PBM E-score” value turn out when AATTCGGT was run?
A: 0.19

Q: AGCCTAGG was tested. Which “PBM E-score” value did it give?
A: -0.197

Q: How did the “PBM E-score” value turn out when AGGTTTTC was run?
A: 0.0486

Q: ACAAGGAT was tested. Which “PBM E-score” value did it give?
A: -0.0601

Q: GAATAATA was tested. Which “PBM E-score” value did it give?
A: 0.238

Q: For GACGGTTA, which “PBM E-score” value is on record?
A: -0.142

Q: With CTGGTGAA as the sequence, how does the “PBM E-score” value read?
A: -0.151

Q: ACGGAACC was tested. Which “PBM E-score” value did it give?
A: 0.0943

Q: CTACGTAC was tested. Which “PBM E-score” value did it give?
A: -0.0598

Q: CATTATCG was tested. Which “PBM E-score” value did it give?
A: -0.0577

Q: ATCGGTCA was tested. Which “PBM E-score” value did it give?
A: -0.00087

Q: How did the “PBM E-score” value turn out when GGGAATAA was run?
A: 0.178

Q: For ATAAAAAG, which “PBM E-score” value is on record?
A: 0.257

Q: How did the “PBM E-score” value turn out when AAAGCGAC was run?
A: 0.0733

Q: CCTATACA was tested. Which “PBM E-score” value did it give?
A: 0.0289

Q: With ACGGGGGA as the sequence, how does the “PBM E-score” value read?
A: -0.175

Q: Which “PBM E-score” value does the source give for ACGACCCG here?
A: 0.168

Q: CCATCGCC was tested. Which “PBM E-score” value did it give?
A: -0.0853

Q: For CACGGTGC, which “PBM E-score” value is on record?
A: -0.182

Q: For GGATTTGA, which “PBM E-score” value is on record?
A: -0.0324

Q: With CGTCCCCA as the sequence, how does the “PBM E-score” value read?
A: -0.047

Q: CCGCTATC was tested. Which “PBM E-score” value did it give?
A: 0.00946

Q: AATACGCC was tested. Which “PBM E-score” value did it give?
A: -0.137

Q: How did the “PBM E-score” value turn out when AAAGCACT was run?
A: 0.0856

Q: With CTCTGCAC as the sequence, how does the “PBM E-score” value read?
A: -0.169

Q: How did the “PBM E-score” value turn out when GCTGGCCC was run?
A: -0.0623

Q: How did the “PBM E-score” value turn out when CTTTACAC was run?
A: 0.112

Q: For CAGCAGAG, which “PBM E-score” value is on record?
A: -0.128

Q: With AAGCGTCC as the sequence, how does the “PBM E-score” value read?
A: -0.0875

Q: Which “PBM E-score” value does the source give for AGATATGC here?
A: 0.0775

Q: With CGCTAAAG as the sequence, how does the “PBM E-score” value read?
A: -0.00095

Q: How did the “PBM E-score” value turn out when AAAAGTCA was run?
A: -0.127

Q: Which “PBM E-score” value does the source give for AAGGTACA here?
A: -0.0356

Q: For CAAAGAGA, which “PBM E-score” value is on record?
A: -0.0733

Q: How did the “PBM E-score” value turn out when ACTTGTGC was run?
A: -0.0536

Q: How did the “PBM E-score” value turn out when TCGTTGAA was run?
A: -0.0977

Q: How did the “PBM E-score” value turn out when ATAACTCC was run?
A: -0.0547

Q: For AAATCCTC, which “PBM E-score” value is on record?
A: -0.00147

Q: With CATATACA as the sequence, how does the “PBM E-score” value read?
A: 0.159

Q: ACCGAGCT was tested. Which “PBM E-score” value did it give?
A: -0.00413

Q: For GGATGCCC, which “PBM E-score” value is on record?
A: -0.255

Q: CTAGGTAC was tested. Which “PBM E-score” value did it give?
A: -0.187

Q: For CATCCCAG, which “PBM E-score” value is on record?
A: -0.0703

Q: How did the “PBM E-score” value turn out when CGCAGACA was run?
A: 0.185

Q: How did the “PBM E-score” value turn out when CATAGTGA was run?
A: -0.108

Q: ATGGTCAA was tested. Which “PBM E-score” value did it give?
A: 0.0461

Q: How did the “PBM E-score” value turn out when ATATTCCA was run?
A: 0.205

Q: CTGCACCC was tested. Which “PBM E-score” value did it give?
A: 0.00564

Q: CTATTTTC was tested. Which “PBM E-score” value did it give?
A: 0.0804

Q: How did the “PBM E-score” value turn out when CGAGGAAA was run?
A: 0.0442

Q: How did the “PBM E-score” value turn out when ATGACGGC was run?
A: -0.06

Q: With GCGCTGAC as the sequence, how does the “PBM E-score” value read?
A: 0.00013

Q: How did the “PBM E-score” value turn out when AACACTTC was run?
A: 0.22

Q: For CTATGGGC, which “PBM E-score” value is on record?
A: 0.0903

Q: How did the “PBM E-score” value turn out when ATCGGCAC was run?
A: 0.0929

Q: For ACCACCCT, which “PBM E-score” value is on record?
A: -0.0901

Q: How did the “PBM E-score” value turn out when GCCCGGGA was run?
A: -0.125

Q: For CCCCGCGC, which “PBM E-score” value is on record?
A: -0.1

Q: How did the “PBM E-score” value turn out when CGGAATCA was run?
A: 0.179

Q: How did the “PBM E-score” value turn out when CACGTATG was run?
A: -0.169

Q: For AAATGGAG, which “PBM E-score” value is on record?
A: 0.0118

Q: For GGCCTTCA, which “PBM E-score” value is on record?
A: -0.0206

Q: How did the “PBM E-score” value turn out when AACCGACA was run?
A: 0.0543

Q: CAATTTGG was tested. Which “PBM E-score” value did it give?
A: 0.00493

Q: ACACGGGA was tested. Which “PBM E-score” value did it give?
A: 0.0947

Q: For CGTACCGC, which “PBM E-score” value is on record?
A: 0.00147

Q: Which “PBM E-score” value does the source give for CTCCCACA here?
A: -0.0449

Q: Which “PBM E-score” value does the source give for GCTTGTCA here?
A: 0.118

Q: AGCCTACC was tested. Which “PBM E-score” value did it give?
A: -0.246

Q: AATATACG was tested. Which “PBM E-score” value did it give?
A: 0.0258

Q: Which “PBM E-score” value does the source give for GCAATAAA here?
A: 0.269

Q: For CGTGTCGA, which “PBM E-score” value is on record?
A: 0.0013

Q: Which “PBM E-score” value does the source give for CATAACTC here?
A: -0.0265

Q: CAGGCAAC was tested. Which “PBM E-score” value did it give?
A: -0.0806

Q: For CCGCACTC, which “PBM E-score” value is on record?
A: 0.15

Q: How did the “PBM E-score” value turn out when AAGTCTAC was run?
A: 0.0468

Q: With AACAAGGT as the sequence, how does the “PBM E-score” value read?
A: 0.0681

Q: Which “PBM E-score” value does the source give for ATAAATTC here?
A: 0.0818

Q: TACTCCCA was tested. Which “PBM E-score” value did it give?
A: 0.0705

Q: Which “PBM E-score” value does the source give for CCACACCC here?
A: 0.00707

Q: Which “PBM E-score” value does the source give for CATGATCG here?
A: -0.00025

Q: How did the “PBM E-score” value turn out when GCCCCAGA was run?
A: -0.0796

Q: With CGCATATC as the sequence, how does the “PBM E-score” value read?
A: 0.293

Q: With CAGGCTAC as the sequence, how does the “PBM E-score” value read?
A: -0.0943

Q: With CTGGTCAC as the sequence, how does the “PBM E-score” value read?
A: -0.0986

Q: Which “PBM E-score” value does the source give for ACGTGGAC here?
A: 0.079

Q: How did the “PBM E-score” value turn out when AGGAGTTG was run?
A: -0.017

Q: For CAAAGCCC, which “PBM E-score” value is on record?
A: -0.148

Q: Which “PBM E-score” value does the source give for CGGCTAGA here?
A: -0.2

Q: With ACCGGACA as the sequence, how does the “PBM E-score” value read?
A: -0.157

Q: With AACCTTCA as the sequence, how does the “PBM E-score” value read?
A: -0.0432

Q: With AAGCATAT as the sequence, how does the “PBM E-score” value read?
A: -0.0895

Q: How did the “PBM E-score” value turn out when AATGTGGC was run?
A: 0.181

Q: With AAGATACT as the sequence, how does the “PBM E-score” value read?
A: 0.14

Q: How did the “PBM E-score” value turn out when GCGAGCGA was run?
A: 0.157

Q: How did the “PBM E-score” value turn out when ACCCTCAG was run?
A: 0.0566

Q: Which “PBM E-score” value does the source give for ATCGCATG here?
A: 0.188

Q: With ATAATGTG as the sequence, how does the “PBM E-score” value read?
A: 0.0555

Q: ATCTGACG was tested. Which “PBM E-score” value did it give?
A: -0.0799

Q: For CGTATAAG, which “PBM E-score” value is on record?
A: -0.0314

Q: How did the “PBM E-score” value turn out when CGATTAAG was run?
A: 0.0277

Q: With CACCCTAG as the sequence, how does the “PBM E-score” value read?
A: 0.113

Q: With AATAGATT as the sequence, how does the “PBM E-score” value read?
A: 0.0195

Q: How did the “PBM E-score” value turn out when ACGACAGC was run?
A: 0.0488

Q: AGAGGTGA was tested. Which “PBM E-score” value did it give?
A: 0.0253

Q: For CTTAGTAC, which “PBM E-score” value is on record?
A: 0.0352
